Reference: PubChem BioAssay AID445 (National Center for Advancing Translational Sciences (NCATS), 2006)
The list shows a part of the results. Shown are side measurements of this screen, not its main read-out; they come without a call. Most of these compounds were active or inconclusive in the main read-out, so they are no random draw. The note in brackets gives the kind of curve behind each potency; many fits are weak.

Assay: IkB Signaling
Conditions: ABC-DLBCL IkBa-CBG/CBR dual luciferase ratio (green luciferase fused to IkBa over red control in OCI-Ly3 lymphoma cells), 4 h; measured here: control luc red channel unless noted
Summary of the method: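 Luminescence ratio of IκBα-fused green versus native red beetle luciferase in OCI-Ly3 cells, 4 h post-doxycycline with compound; red signal alone, scaled from basal (0%) to zero light (-100%), flagged nonspecific or cytotoxic effects.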

Structure (SMILES) | AC50
CC1CC(C)(C)Nc2ccc(OC(=O)c3ccco3)cc21 (stereo not given) | 6.31 µM [falling, full curve]
CCc1c(C)c2cc3c(c(C)c2oc1=O)OCN(CCc1ccc(OC)c(OC)c1)C3 | 25.1 µM [falling, single point]
COc1ccc(N2CCN(C(=O)c3ccc(NS(=O)(=O)c4ccc(F)cc4)cc3)CC2)cc1 | 25.1 µM [falling, partial curve]
COC(=O)C1=CN(C(C)C)C=C(C(=O)OC)C1c1cc2c(cc1Br)OCO2 | 6.31 µM [falling, partial curve]
COc1ccc2c(c1)c1c(c(=O)n(-c3cccc(C)c3)c(=O)n1CC(=O)NCCC1=CCCCC1)n2C | 15.8 µM [falling, partial curve]
COc1ccccc1Nc1nc(-c2ccccc2)c(CC(=O)O)s1 | 31.6 µM [falling, partial curve]
O=c1oc2c(CN3CCCCCC3)c(O)ccc2cc1-c1nc2ccccc2[nH]1 | 31.6 µM [falling, partial curve]
O=c1c2cccnc2n(Cc2cccc(F)c2)c(=O)n1Cc1ccc(F)cc1 | 31.6 µM [falling, single point]
Cc1ccccc1OCC(=O)Nc1ccc2nc(SCC(=O)N3CCCC3)sc2c1 | 20 µM [falling, partial curve]
Cc1ccc(-c2nc(NC(=O)CSc3nnc4scc(-c5ccccc5)n34)ns2)cc1 | 15.8 µM [falling, partial curve]
COc1ccc(S(=O)(=O)c2nnn(-c3cccc(Cl)c3)c2N)cc1 | 15.8 µM [falling, partial curve]
CCOC(=O)c1cc(-c2ccc(OC)c(S(=O)(=O)N3CCN(c4ccccc4)CC3)c2)on1 | 15.8 µM [falling, partial curve]
O=C(Nc1nc2ccccc2[nH]1)c1ccc(F)cc1 | 1.58 µM [falling, full curve]
CC(NC(=O)c1cc2ccccc2o1)c1cccs1 (stereo not given) | 15.8 µM [falling, partial curve]
CCc1ccc(C(=O)COC(=O)C(NC(=O)C2CCC(C)CC2)C(C)C)cc1 (stereo not given) | 7.94 µM [falling, full curve]
CCCc1ccc(OCC(=O)Nc2sc3c(c2C(=O)OCC)CCC(C(C)(C)C)C3)cc1 (stereo not given) | 1 µM [rising, full curve, poor fit]
O=C(CSc1nc2scc(-c3ccco3)c2c(=O)n1-c1ccccc1)NCC1CCCO1 (stereo not given) | 3.98 µM [rising, partial curve] [measured here: IkB-luc green channel]
Cc1ccc(C(=O)CSc2nnc(CNc3ccc(C)cc3C)n2Cc2ccco2)cc1 | 15.8 µM [falling, partial curve]
CCn1c2c(c(=O)n3ncc(C(=O)N4CCN(c5ccc(Cl)cc5)CC4)c13)CN(Cc1ccc(OC)cc1)CC2 | 12.6 µM [falling, partial curve]
COc1ccc(-c2nc3scc(CCNS(=O)(=O)c4ccc(F)cc4C)n3n2)cc1 | 3.16 µM [rising, single point]

Structure (SMILES) | AC50
CCOC(=O)c1[nH]c(C)c(CCC(=O)NCc2ccc(CC)cc2)c1C | 31.6 µM [falling, single point]
COc1ccc(Nc2cc(C(=O)NCCCN3CCN(c4ccccc4F)CC3)c3ccccc3n2)c(OC)c1 | 12.6 µM [falling, partial curve]
Cc1ccc(-c2ccc(=O)n(CCC(=O)NCCc3ccccc3)n2)cc1 | 3.16 µM [rising, single point]
O=C1CSC2(C(=O)N(Cc3cccc(F)c3)c3ccccc32)N1c1cccc(C(F)(F)F)c1 (stereo not given) | 31.6 µM [falling, partial curve]
CCOC(=O)Cc1csc(NC(=O)CCc2ccc(S(=O)(=O)N3CCOCC3)cc2)n1 | 31.6 µM [falling, single point]
COc1ccc(NC(=O)c2ccc3nc(C(C)C)oc3c2)cc1OC | 6.31 µM [falling, partial curve, poor fit]
Cc1ccc(Cn2c(CO)cnc2SCC(=O)Nc2ccc(C)c(Cl)c2)cc1 | 20 µM [falling, single point]
COc1ccc(CNC(=O)CCc2c(C)c3cc4c(C)coc4c(C)c3oc2=O)cc1OC | 0.2 µM [rising, full curve, poor fit]
Cc1ccc(S(=O)(=O)CC(=O)N2CCN(c3nc4c(F)cccc4s3)CC2)cc1 | 6.31 µM [rising, single point]
CN1C(=O)c2ccccc2Sc2ccc(NC(=O)c3ccc(C(F)(F)F)cc3)cc21 | 20 µM [falling, partial curve]
N#Cc1ccccc1NS(=O)(=O)c1ccc(N2CCCCS2(=O)=O)cc1 | 0.251 µM [falling, full curve, poor fit]
CCCc1nn2c(=O)cc(COC(=O)c3ccc(NC(=O)COc4ccccc4)cc3)nc2s1 | 10 µM [falling, partial curve, poor fit]
CCN(CC)C(=O)c1sc2c(c1C)c(=O)n(CCc1ccccc1)c(=O)n2Cc1cc(C)ccc1C | 12.6 µM [falling, partial curve, poor fit]
COc1cccc(N2CCN(C(=O)c3cc4c(s3)-c3ccccc3OC4)CC2)c1 | 0.2 µM [falling, full curve, poor fit]
O=C(CCSc1ccc(F)cc1)Nc1ccc(-n2cnnn2)cc1 | 25.1 µM [falling, partial curve, poor fit]
O=C(NCCc1ccc(Cl)cc1)c1ccc(CS(=O)(=O)c2ccc(Cl)cc2)o1 | 15.8 µM [falling, partial curve]
CC(C)(C)c1ccc(Cn2nnc3c(=O)[nH]c(C4CCN(C(=O)Cc5cccs5)CC4)nc32)cc1 | 39.8 µM [falling, single point]
Cc1ccc2cc(CN(Cc3ccccc3)Cc3nnnn3C3CCCC3)c(=O)[nH]c2c1 | 3.16 µM [falling, partial curve]
COc1ccc(NC(=O)Cn2cc(S(=O)(=O)c3ccccc3)c(=O)c3cc4c(cc32)OCO4)cc1 | 39.8 µM [falling, single point]
CCCC(=O)OCc1cnc(C)c2oc(=O)c(C(=O)Nc3cccc(C(F)(F)F)c3)cc12 | 25.1 µM [falling, partial curve]

Structure (SMILES) | AC50
COc1ccc(N(Cc2cccs2)C(=O)c2ccc(OC)c(Cl)c2)cc1 | 5.01 µM [falling, partial curve]
Cc1cccc(N2CCN(C(=O)C3CCN(S(=O)(=O)c4c(C)noc4C)CC3)CC2C)c1 (stereo not given) | 39.8 µM [falling, partial curve]
CCCS(=O)(=O)c1c(S(=O)(=O)CCC)c2cc(C(C)(C)C)ccn2c1C(=O)c1ccccc1 | 20 µM [falling, single point]
CC(=O)Nc1ccc(NC(=O)c2ccccc2F)cc1 | 12.6 µM [falling, partial curve]
Cc1ccccc1C(=O)Nc1ccc2nc(N3CCCCC3)cc(C)c2c1 | 1.26 µM [rising, partial curve]
COC(=O)c1ccc(NC(=O)CC2C(=O)N(c3ccccc3)C(=O)N2Cc2ccc(F)cc2)cc1 (stereo not given) | 25.1 µM [falling, single point]
CC(C)c1noc(-c2ccccc2OCC(=O)Nc2cccc([N+](=O)[O-])c2)n1 | 12.6 µM [falling, partial curve]
CC(C)Sc1ncc(Cl)c(C(=O)Nc2ccc(S(=O)(=O)N3CCCCC3)cc2)n1 | 39.8 µM [falling, single point]
COc1cc(C2CC(=O)Oc3c2c(=O)[nH]c2ccccc32)cc(OC)c1OC (stereo not given) | 25.1 µM [falling, partial curve, poor fit]
Cc1ccc(-c2cc3nc(-c4ccccc4)cc(C(F)(F)F)n3n2)cc1 | 20 µM [falling, partial curve]
Cc1ccc(NC(=O)C2CCN(S(=O)(=O)c3cccc4nonc34)CC2)cc1C | 1 µM [falling, full curve, poor fit]
CCNc1ncc2nc(-c3cn(C)c4ccccc34)c(=O)n(-c3ccccc3)c2n1 | 0.794 µM [falling, partial curve]
Cc1c(NC(=O)c2ccc3c(c2)OCO3)cccc1-c1nc2ncccc2o1 | 7.94 µM [falling, partial curve]
O=C(Oc1ccccc1F)c1nc(SCc2ccc(F)cc2)ncc1Cl | 7.94 µM [falling, partial curve, poor fit]
Cc1ccc(CN(C(=O)COc2cc(C)c(Cl)c(C)c2)c2ccccn2)o1 | 25.1 µM [falling, single point]
CC(=O)N1CCc2cc(Br)cc(S(=O)(=O)CCC(=O)N3CCN(c4ccccc4Cl)CC3)c21 | 25.1 µM [falling, single point]
COc1ccc(-c2nc3scc(CCNS(=O)(=O)c4ccc5c(c4)OCCO5)n3n2)cc1 | 7.94 µM [falling, partial curve]
COc1ccc(C(=O)OCCNC(=O)c2c(Cl)nc3ccccn23)cc1 | 31.6 µM [falling, single point]
Cc1cccc(C)c1NC(=O)CS(=O)(=O)c1nc(-c2ccc(Cl)cc2)cn1-c1ccccc1 | 6.31 µM [falling, partial curve]
CC(=O)N1CCc2cc(S(=O)(=O)NC(CC(C)C)C(=O)Nc3cc(C)cc(C)c3)ccc21 (stereo not given) | 12.6 µM [falling, single point]

Laid out differently: entries from further up.
Structure (SMILES)	AC50
COc1ccc(N2CCN(C(=O)c3ccc(NS(=O)(=O)c4ccc(F)cc4)cc3)CC2)cc1	25.1 µM [falling, partial curve]
COC(=O)C1=CN(C(C)C)C=C(C(=O)OC)C1c1cc2c(cc1Br)OCO2	6.31 µM [falling, partial curve]
O=C(Nc1nc2ccccc2[nH]1)c1ccc(F)cc1	1.58 µM [falling, full curve]
O=C(CSc1nc2scc(-c3ccco3)c2c(=O)n1-c1ccccc1)NCC1CCCO1 (stereo not given)	3.98 µM [rising, partial curve] [measured here: IkB-luc green channel]
COc1ccc(Nc2cc(C(=O)NCCCN3CCN(c4ccccc4F)CC3)c3ccccc3n2)c(OC)c1	12.6 µM [falling, partial curve]
O=C1CSC2(C(=O)N(Cc3cccc(F)c3)c3ccccc32)N1c1cccc(C(F)(F)F)c1 (stereo not given)	31.6 µM [falling, partial curve]
Cc1ccc(Cn2c(CO)cnc2SCC(=O)Nc2ccc(C)c(Cl)c2)cc1	20 µM [falling, single point]
CN1C(=O)c2ccccc2Sc2ccc(NC(=O)c3ccc(C(F)(F)F)cc3)cc21	20 µM [falling, partial curve]
Cc1ccccc1C(=O)Nc1ccc2nc(N3CCCCC3)cc(C)c2c1	1.26 µM [rising, partial curve]
CC(C)c1noc(-c2ccccc2OCC(=O)Nc2cccc([N+](=O)[O-])c2)n1	12.6 µM [falling, partial curve]
COc1cc(C2CC(=O)Oc3c2c(=O)[nH]c2ccccc32)cc(OC)c1OC (stereo not given)	25.1 µM [falling, partial curve, poor fit]
